The labels stand for the following.
B1: SUV39H1 (protein, UniProt O43463 1-412)
chain: MAENLKGCSVCCKSSWNQLQDLCRLAKLSCPALGISKRNLYDFEVEYLCDYKKIREQEYYLVKWRGYPDSESTWEPRQNLKCVRILKQFHKDLERELLRRHHRSKTPRHLDPSLANYLVQKAKQRRALRRWEQELNAKRSHLGRITVENEVDLDGPPRAFVYINEYRVGEGITLNQVAVGCECQDCLWAPTGGCCPGASLHKFAYNDQGQVRLRAGLPIYECNSRCRCGYDCPNRVVQKGIRYDLCIFRTDDGRGWGVRTLEKIRKNSFVMEYVGEIITSEEAERRGQIYDRQGATYLFDLDYVEDVYTVDAAYYGNISHFVNHSCDPNLQVYNVFIDNLDERLPRIAFFATRTIRAGEELTFDYNMQVDPVDMESTRMDSNFGLAGLPGSPKKRVRIECKCGTESCRKYLF

Chains of the proteins cited; added tags and fusions are not shown. Lines headed by an entry give the natural chain unless they say otherwise; changes in a name come on top.
UniProt Q86U44: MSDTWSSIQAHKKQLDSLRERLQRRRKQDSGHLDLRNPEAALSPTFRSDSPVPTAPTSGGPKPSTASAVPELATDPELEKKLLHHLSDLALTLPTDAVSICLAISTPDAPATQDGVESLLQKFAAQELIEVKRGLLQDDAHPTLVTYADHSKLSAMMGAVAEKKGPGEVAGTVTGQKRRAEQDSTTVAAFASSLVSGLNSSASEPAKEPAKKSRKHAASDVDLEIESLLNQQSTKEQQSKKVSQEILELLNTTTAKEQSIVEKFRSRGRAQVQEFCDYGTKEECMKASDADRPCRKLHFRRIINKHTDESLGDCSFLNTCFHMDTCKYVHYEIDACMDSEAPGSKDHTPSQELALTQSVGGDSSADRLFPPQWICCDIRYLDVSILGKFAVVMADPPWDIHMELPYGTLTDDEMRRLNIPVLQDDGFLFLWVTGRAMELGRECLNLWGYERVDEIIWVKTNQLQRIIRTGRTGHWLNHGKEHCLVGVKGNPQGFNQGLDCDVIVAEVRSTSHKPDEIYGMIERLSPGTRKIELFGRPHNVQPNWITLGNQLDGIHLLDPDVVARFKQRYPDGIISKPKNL
UniProt Q16531: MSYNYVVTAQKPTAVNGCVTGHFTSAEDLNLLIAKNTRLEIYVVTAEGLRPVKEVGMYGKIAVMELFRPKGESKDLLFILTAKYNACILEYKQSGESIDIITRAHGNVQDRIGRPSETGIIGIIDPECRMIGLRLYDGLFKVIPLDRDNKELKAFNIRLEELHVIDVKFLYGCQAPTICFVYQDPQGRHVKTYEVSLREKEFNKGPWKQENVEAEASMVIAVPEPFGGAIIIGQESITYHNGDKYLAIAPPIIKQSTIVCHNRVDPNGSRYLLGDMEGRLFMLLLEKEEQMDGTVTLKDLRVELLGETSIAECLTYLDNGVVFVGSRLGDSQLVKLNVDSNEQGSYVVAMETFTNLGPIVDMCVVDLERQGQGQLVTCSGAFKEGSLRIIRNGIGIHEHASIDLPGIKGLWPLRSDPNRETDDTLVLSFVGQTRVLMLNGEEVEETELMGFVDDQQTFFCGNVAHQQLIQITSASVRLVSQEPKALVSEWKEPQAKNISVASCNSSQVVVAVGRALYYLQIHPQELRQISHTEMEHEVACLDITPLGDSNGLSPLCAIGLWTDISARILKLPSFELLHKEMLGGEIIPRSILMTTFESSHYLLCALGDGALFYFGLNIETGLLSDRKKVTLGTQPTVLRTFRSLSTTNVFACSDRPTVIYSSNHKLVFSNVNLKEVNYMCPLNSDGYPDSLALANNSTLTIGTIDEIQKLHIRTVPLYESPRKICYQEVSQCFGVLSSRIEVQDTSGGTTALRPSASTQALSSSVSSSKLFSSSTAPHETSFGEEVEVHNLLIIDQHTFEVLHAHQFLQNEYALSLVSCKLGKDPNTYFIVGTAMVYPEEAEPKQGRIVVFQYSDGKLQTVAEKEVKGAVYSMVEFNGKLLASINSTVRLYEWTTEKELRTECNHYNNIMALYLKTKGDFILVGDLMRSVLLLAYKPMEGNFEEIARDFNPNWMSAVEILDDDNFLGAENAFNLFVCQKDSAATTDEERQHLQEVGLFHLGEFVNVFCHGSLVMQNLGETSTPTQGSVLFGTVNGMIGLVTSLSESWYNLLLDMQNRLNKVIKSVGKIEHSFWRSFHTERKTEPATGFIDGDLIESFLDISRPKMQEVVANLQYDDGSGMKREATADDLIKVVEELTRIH
UniProt Q9H5I1: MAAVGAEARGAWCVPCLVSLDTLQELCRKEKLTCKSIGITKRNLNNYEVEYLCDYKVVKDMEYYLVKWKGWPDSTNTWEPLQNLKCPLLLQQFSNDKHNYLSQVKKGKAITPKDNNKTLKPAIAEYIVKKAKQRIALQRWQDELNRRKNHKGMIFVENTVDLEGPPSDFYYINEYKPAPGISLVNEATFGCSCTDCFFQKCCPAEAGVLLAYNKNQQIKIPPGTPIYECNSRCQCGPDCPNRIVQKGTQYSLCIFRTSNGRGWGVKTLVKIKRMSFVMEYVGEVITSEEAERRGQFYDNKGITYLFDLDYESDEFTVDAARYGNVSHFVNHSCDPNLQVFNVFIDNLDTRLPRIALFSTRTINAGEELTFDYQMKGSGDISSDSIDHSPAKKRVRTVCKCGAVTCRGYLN

These are yes or no findings as the source states them, for the method shown. Binding seen in cells or lysates may run through a third protein. Binding calls can cover weak binding; strength is not graded here.

In the assay the target is mutant METTL3 (exogenous, in METTL3−/− hESCs rescued by mutant METTL3) (UniProt Q86U44). As to the kind of experiment: co-IP; anti-METTL3 antibody, protein A and G magnetic beads, whole cell extract of WT hESCs or METTL3−/− hESCs rescued by WT or mutant METTL3; 50 mM Tris-HCl pH 7.6, 150 mM KCl, 1 mM EDTA, 10% glycerol, 4 °C 16 h; also with RNase A treatment (interactions impaired).
Consider DDB1 (from UniProt Q16531 1-1140), for which the binding entry is given as “binds weakly”.
For the molecule SUV39H2 (from UniProt Q9H5I1 1-410), the binding entry is listed as “binds weakly”.
With B1, the binding result was “binds weakly”.

For the origin of these results see paper PMC11339338.
